Test results from publication PMC4459816.
Results are given in words; binding and its absence hold for the method and conditions named. In cells and extracts the contact can be indirect. Some results given as binding are weak or reduced against the parent protein; the word gives no strength.

Sequences of proteins named here, by UniProt entry; tags and fusion partners are left off. Residues count along the entry.
UniProt Q02242, residues 25-288: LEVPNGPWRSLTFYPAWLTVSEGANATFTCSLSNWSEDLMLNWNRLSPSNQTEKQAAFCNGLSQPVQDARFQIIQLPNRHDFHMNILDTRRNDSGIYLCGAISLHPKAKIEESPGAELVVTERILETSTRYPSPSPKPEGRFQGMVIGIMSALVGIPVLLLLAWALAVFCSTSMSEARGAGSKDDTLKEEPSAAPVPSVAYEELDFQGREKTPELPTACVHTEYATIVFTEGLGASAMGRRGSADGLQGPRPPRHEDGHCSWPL
UniProt P39688: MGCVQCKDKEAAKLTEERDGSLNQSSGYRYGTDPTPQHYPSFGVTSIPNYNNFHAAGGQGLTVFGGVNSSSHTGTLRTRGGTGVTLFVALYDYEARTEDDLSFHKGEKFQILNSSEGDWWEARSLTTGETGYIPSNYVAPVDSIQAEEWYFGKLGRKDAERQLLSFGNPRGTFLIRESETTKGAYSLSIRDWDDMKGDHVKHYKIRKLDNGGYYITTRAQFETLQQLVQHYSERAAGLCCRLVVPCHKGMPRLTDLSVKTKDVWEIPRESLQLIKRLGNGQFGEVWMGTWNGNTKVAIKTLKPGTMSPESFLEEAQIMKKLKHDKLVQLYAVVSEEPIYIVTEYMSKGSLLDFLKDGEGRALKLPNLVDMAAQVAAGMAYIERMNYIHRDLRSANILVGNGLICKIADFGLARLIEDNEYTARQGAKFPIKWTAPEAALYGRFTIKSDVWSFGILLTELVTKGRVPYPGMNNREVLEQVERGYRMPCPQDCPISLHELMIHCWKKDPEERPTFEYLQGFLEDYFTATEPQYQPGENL

Assays:
Assay in all cases: co-IP; endogenous proteins; CD8+ CTLs stimulated with hydrogen peroxide and sodium orthovanadate; lysates incubated with various antibodies and protein G-coupled sepharose beads; immunoblotting with antibodies against SKAP55, ADAP and Fyn
[1] = target: T1, ADAP (adhesion and degranulation promoting adaptor protein) (mouse (endogenous in CD8+ CTLs)) (UniProt O35601)
T1 sequence: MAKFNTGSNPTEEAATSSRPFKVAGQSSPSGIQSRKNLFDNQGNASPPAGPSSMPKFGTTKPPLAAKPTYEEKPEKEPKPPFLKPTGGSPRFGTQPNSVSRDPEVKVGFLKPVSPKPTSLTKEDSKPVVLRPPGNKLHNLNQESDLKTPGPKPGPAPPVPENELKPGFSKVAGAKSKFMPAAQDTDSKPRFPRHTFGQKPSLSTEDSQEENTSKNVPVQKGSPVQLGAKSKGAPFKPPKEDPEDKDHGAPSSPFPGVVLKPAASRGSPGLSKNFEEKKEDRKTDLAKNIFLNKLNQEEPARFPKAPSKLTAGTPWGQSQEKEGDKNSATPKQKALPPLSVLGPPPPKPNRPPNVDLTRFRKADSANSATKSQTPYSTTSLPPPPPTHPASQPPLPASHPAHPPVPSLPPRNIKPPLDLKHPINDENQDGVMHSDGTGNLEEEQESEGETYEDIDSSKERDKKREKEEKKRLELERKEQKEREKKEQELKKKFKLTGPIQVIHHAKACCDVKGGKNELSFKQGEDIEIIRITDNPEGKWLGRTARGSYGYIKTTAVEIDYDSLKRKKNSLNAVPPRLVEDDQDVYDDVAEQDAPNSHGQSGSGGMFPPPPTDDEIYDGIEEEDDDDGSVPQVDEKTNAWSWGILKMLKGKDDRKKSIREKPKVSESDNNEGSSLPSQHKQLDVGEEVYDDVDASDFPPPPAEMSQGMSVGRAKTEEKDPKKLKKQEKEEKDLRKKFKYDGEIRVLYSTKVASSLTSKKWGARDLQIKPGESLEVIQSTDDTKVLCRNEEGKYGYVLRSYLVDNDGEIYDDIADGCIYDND

[2] = target: T2, SKAP55 (src kinase-associated protein of 55 kDa) (mouse (endogenous in CD8+ CTLs)) (UniProt Q3UUV5)
T2 sequence: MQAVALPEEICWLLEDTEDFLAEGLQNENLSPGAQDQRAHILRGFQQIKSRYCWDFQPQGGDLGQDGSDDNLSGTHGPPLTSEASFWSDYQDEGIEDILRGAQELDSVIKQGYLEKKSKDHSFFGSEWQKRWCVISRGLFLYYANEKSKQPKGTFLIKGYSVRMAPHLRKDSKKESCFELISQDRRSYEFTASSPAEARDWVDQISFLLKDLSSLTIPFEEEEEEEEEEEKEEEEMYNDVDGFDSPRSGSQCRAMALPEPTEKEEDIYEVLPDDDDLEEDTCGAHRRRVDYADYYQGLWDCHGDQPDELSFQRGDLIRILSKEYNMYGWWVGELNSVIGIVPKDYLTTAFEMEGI

[3] = target: Programmed Cell Death Receptor 1 (PD-1) (mouse (endogenous in CD8+ CTLs)) (UniProt Q02242)

Measured: binding

Fyn (from UniProt P39688 1-537) (enzyme)
binds: [1] | [2] | [3]
